From US20250084388A1
These are yes or no findings as the source states them, for the method shown. Some entries that bind do so weakly or less than the wild type. Sequences can lack the tags named with a protein.

Protein sequences, listed by entry. Tags and fused reporters are not part of them. Residues count along the entry.
UniProt P22004, residues 382-513: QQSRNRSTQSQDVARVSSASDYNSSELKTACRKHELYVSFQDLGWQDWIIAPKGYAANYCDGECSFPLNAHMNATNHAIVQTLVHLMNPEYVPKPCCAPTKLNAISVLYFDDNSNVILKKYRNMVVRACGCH

Columns and labels:
Activin B = molecular target: T1, Activin B (UniProt P09529); assay: Biacore SPR (retold in the reporter-assay paragraph)
T1 sequence (looked up): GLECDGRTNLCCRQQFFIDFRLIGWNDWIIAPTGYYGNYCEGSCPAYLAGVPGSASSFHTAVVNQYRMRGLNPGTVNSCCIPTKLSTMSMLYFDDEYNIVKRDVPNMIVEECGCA

GDF11 [1] = molecular target: T2, GDF11 (UniProt O95390); assay: as above
T2 sequence (looked up): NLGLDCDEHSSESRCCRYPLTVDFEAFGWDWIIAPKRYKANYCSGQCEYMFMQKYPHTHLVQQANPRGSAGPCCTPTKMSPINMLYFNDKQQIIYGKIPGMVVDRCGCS

GDF8 [2] = molecular target: T3, GDF8 (UniProt O14793); assay: as above
T3 sequence (looked up): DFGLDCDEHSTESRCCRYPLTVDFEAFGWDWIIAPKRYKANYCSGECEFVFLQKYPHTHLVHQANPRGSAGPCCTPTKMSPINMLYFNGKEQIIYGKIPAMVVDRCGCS

GDF11 [3] = molecular target: T2, GDF11; assay: Biacore SPR
GDF8 [4] = molecular target: T3, GDF8; assay: Biacore SPR
BMP6 [5] = molecular target: BMP6 (UniProt P22004); assay: Biacore SPR
GDF11 [6] = molecular target: T2, GDF11; assay: Biacore SPR (legend of FIG. 4)
GDF8 [7] = molecular target: T3, GDF8; assay: Biacore SPR (legend of FIG. 4)
BMP6 [8] = molecular target: BMP6 (UniProt P22004); assay: Biacore SPR (legend of FIG. 4)
GDF8, O14793 = assay: SPR (retold in Example 3; the ligands are those of the 58th table); details: remark: other sources report otherwise

Measured: binding

B1: ActRIIB-Fc homodimer (Fc fusion, not shown: a dimerising Fc or GST)
chain: GRGEAETRECIYYNANWELERTNQSGLERCEGEQDKRLHCYASWRNSSGTIELVKKGCWLDDFNCYDRQECVATEENPQVYFCCCEGNFCNERFTHLPEAGGPEVTYEPPPTAPT
not listed: GDF8, O14793
binds: all other assays above

B2: ALK4-Fc homodimer, P36896 24-126 (Fc fusion, not shown: a dimerising Fc or GST)
chain: SGPRGVQALLCACTSCLQANYTCETDGACMVSIFNLDGMEHHVRTCIPKVELVPAGKPFYCLSSEDLRNTHCCYTDYCNRIDLRVPSGHLKEPEHPSMWGPVE
binds: GDF8, O14793
